Values quoted from earlier work as cited in patent US7485653B2, “1,4-dihydropyridine compounds, pharmaceutical compositions, and methods for the treatment of cardiovascular disease” (Gilead Sciences, Inc., priority 2003, dated 2009).
At least one compound was matched to its structure with a doubt left.

How the values were obtained:
[1] = tested on: α-MyHC/β-MyHC protein ratio; settings: chronic hypertension and aging rats; believed an indirect effect; cited from earlier work
total MyHC = settings: neonatal rat ventricular myocytes, in vitro; cited from earlier work
α-MyHC/β-MyHC ratios = settings: spontaneously hypertensive rats, 12-week study; cited from earlier work

| Compound | effect on α-MyHC/β-MyHC protein ratio [1] | effect on total MyHC (total MyHC) | effect on α-MyHC/β-MyHC ratios (α-MyHC/β-MyHC ratios) |
| --- | --- | --- | --- |
| COC(=O)C1=C(C)NC(C)=C(C(=O)OC)C1c1ccccc1[N+](=O)[O-] [nifedipine] | protected against a drop in the α-MyHC/β-MyHC protein ratio | caused a lowering of total MyHC | – |
| CCOC(=O)C1=C(COCCN)NC(C)=C(C(=O)OC)C1c1ccccc1Cl (stereo not drawn) [amlodipine] | – | – | maintained their α-MyHC/β-MyHC ratios |
